# Results taken from article PMC11005723, “Development of Complementary Photo‐arginine/lysine to Promote Discovery of Arg/Lys hPTMs Interactomes” (Advanced Science, 2024).
# The source gives many values for each of these; only a part stands here.
# Test system: HEK293T nuclear lysates
# Assay: SILAC‐based pull‐down proteomics H4K5me1/H4K5 (probes 6/5)
# Assay type: binding, human
substance,measurement,setting,value
probe 6: H4K5me peptide probe with photo‐arginine R(dz) and K(biotin) (SGRGKGGKGLGKGGK; photo-arginine R(dz) at 3; monomethyl-lysine at 5; K(biotin) at 15),B6 log2 (H4K5me/H4K5),"protein A0A0B4J1W3 NAA15, run B6",0.3204
same,C6 log (H4K5me/H4K5),"protein A0A0B4J1W3 NAA15, run C6",-0.5428
same,B6 log2 (H4K5me/H4K5),"protein A0A0B4J2E5 LOC102724159, run B6",0.4123
same,C6 log (H4K5me/H4K5),"protein A0A0B4J2E5 LOC102724159, run C6",0.265
same,B6 log2 (H4K5me/H4K5),"protein A0A0C4DFX4 Uncharacterized protein (Fragment), run B6",0.1431
same,C6 log (H4K5me/H4K5),"protein A0A0C4DFX4 Uncharacterized protein (Fragment), run C6",0.03123
same,B6 log2 (H4K5me/H4K5),"protein A0A0U1RR22 PACSIN2, run B6",0.5847
same,C6 log (H4K5me/H4K5),"protein A0A0U1RR22 PACSIN2, run C6",0.5847
same,B6 log2 (H4K5me/H4K5),"protein A0A1B0GUB2 CDC73, run B6",0.1338
same,C6 log (H4K5me/H4K5),"protein A0A1B0GUB2 CDC73, run C6",-0.6553
same,B6 log2 (H4K5me/H4K5),"protein A0A1W2PQ90 Uncharacterized protein, run B6",0.3344
same,C6 log (H4K5me/H4K5),"protein A0A1W2PQ90 Uncharacterized protein, run C6",-0.04098
same,B6 log2 (H4K5me/H4K5),"protein A0A087WVT1 ZNF48, run B6",0.1392
same,C6 log (H4K5me/H4K5),"protein A0A087WVT1 ZNF48, run C6",0.3481
same,B6 log2 (H4K5me/H4K5),"protein A0A087WY61 NUMA1, run B6",0.4403
same,C6 log (H4K5me/H4K5),"protein A0A087WY61 NUMA1, run C6",0.234
same,B6 log2 (H4K5me/H4K5),"protein A0A590UJK4 SRSF6, run B6",0.4188
same,C6 log (H4K5me/H4K5),"protein A0A590UJK4 SRSF6, run C6",0.701
same,B6 log2 (H4K5me/H4K5),"protein ABI2 (E9PEZ7), run B6",0.05156
same,C6 log (H4K5me/H4K5),"protein ABI2 (E9PEZ7), run C6",0.1509
same,B6 log2 (H4K5me/H4K5),"protein ACAT1 (A0A5F9ZHJ7), run B6",0.01703
same,C6 log (H4K5me/H4K5),"protein ACAT1 (A0A5F9ZHJ7), run C6",0.06128
same,B6 log2 (H4K5me/H4K5),"protein ACTL6A (O96019), SILAC run B6",-0.3299
same,C6 log (H4K5me/H4K5),"protein ACTL6A (O96019), SILAC run C6",-0.03866
same,B6 log2 (H4K5me/H4K5),"protein ADAR (P55265), run B6",-0.01052
same,C6 log (H4K5me/H4K5),"protein ADAR (P55265), run C6",-0.07333
same,B6 log2 (H4K5me/H4K5),"protein AHSA1 (O95433), SILAC run B6",-0.3074
same,C6 log (H4K5me/H4K5),"protein AHSA1 (O95433), SILAC run C6",-0.4405
same,B6 log2 (H4K5me/H4K5),"protein ANP32A (P39687), run B6",0.07542
same,C6 log (H4K5me/H4K5),"protein ANP32A (P39687), run C6",-0.03396
same,B6 log2 (H4K5me/H4K5),"protein ANP32E (Q9BTT0), SILAC run B6",-0.3202
same,C6 log (H4K5me/H4K5),"protein ANP32E (Q9BTT0), SILAC run C6",-0.3496
same,B6 log2 (H4K5me/H4K5),"protein ANXA2 (P07355), run B6",0.1054
same,C6 log (H4K5me/H4K5),"protein ANXA2 (P07355), run C6",-0.006249
same,B6 log2 (H4K5me/H4K5),"protein ARIH1 (Q9Y4X5), run B6",0.04302
same,C6 log (H4K5me/H4K5),"protein ARIH1 (Q9Y4X5), run C6",0.09616
same,B6 log2 (H4K5me/H4K5),"protein ARL6IP4 (F5GYV5), SILAC run B6",-0.3984
same,C6 log (H4K5me/H4K5),"protein ARL6IP4 (F5GYV5), SILAC run C6",-0.271
same,B6 log2 (H4K5me/H4K5),"protein ATF7IP (Q6VMQ6), run B6",0.1175
same,C6 log (H4K5me/H4K5),"protein ATF7IP (Q6VMQ6), run C6",-0.9105
same,B6 log2 (H4K5me/H4K5),"protein B5MDQ0 ERCC6L, run B6",0.3807
same,C6 log (H4K5me/H4K5),"protein B5MDQ0 ERCC6L, run C6",-0.7652
same,B6 log2 (H4K5me/H4K5),"protein BCCIP (Q9P287), run B6",-0.001051
same,C6 log (H4K5me/H4K5),"protein BCCIP (Q9P287), run C6",-0.1692
same,B6 log2 (H4K5me/H4K5),"protein BIN1 (O00499), SILAC run B6",-0.2006
same,C6 log (H4K5me/H4K5),"protein BIN1 (O00499), SILAC run C6",-0.3971
same,B6 log2 (H4K5me/H4K5),"protein BOD1L1 (Q8NFC6), run B6",0.00162
same,C6 log (H4K5me/H4K5),"protein BOD1L1 (Q8NFC6), run C6",-0.09575
same,B6 log2 (H4K5me/H4K5),"protein BPTF (F5GXF5), run B6",0.004019
same,C6 log (H4K5me/H4K5),"protein BPTF (F5GXF5), run C6",-0.2522
same,B6 log2 (H4K5me/H4K5),"protein BRD3 (Q15059), SILAC run B6",-0.289
same,C6 log (H4K5me/H4K5),"protein BRD3 (Q15059), SILAC run C6",-0.3232
same,B6 log2 (H4K5me/H4K5),"protein BRD4 (O60885), SILAC run B6",-0.3226
same,C6 log (H4K5me/H4K5),"protein BRD4 (O60885), SILAC run C6",-0.2948
same,B6 log2 (H4K5me/H4K5),"protein BRD7 (Q9NPI1), run B6",0.08011
same,C6 log (H4K5me/H4K5),"protein BRD7 (Q9NPI1), run C6",0.09406
same,B6 log2 (H4K5me/H4K5),"protein BRD8 (B5MCW3), SILAC run B6",-0.4811
same,C6 log (H4K5me/H4K5),"protein BRD8 (B5MCW3), SILAC run C6",-0.188
same,B6 log2 (H4K5me/H4K5),"protein BZW2 (E7ETZ4), SILAC run B6",-0.2716
same,C6 log (H4K5me/H4K5),"protein BZW2 (E7ETZ4), SILAC run C6",-0.4586
same,B6 log2 (H4K5me/H4K5),"protein C1QBP (Q07021), run B6",-0.003748
same,C6 log (H4K5me/H4K5),"protein C1QBP (Q07021), run C6",-0.1397
same,B6 log2 (H4K5me/H4K5),"protein C1orf52 (Q8N6N3), SILAC run B6",-0.3601
same,C6 log (H4K5me/H4K5),"protein C1orf52 (Q8N6N3), SILAC run C6",-0.1997
same,B6 log2 (H4K5me/H4K5),"protein C9J3L8 SSR1, run B6",0.2748
same,C6 log (H4K5me/H4K5),"protein C9J3L8 SSR1, run C6",0.2786
same,B6 log2 (H4K5me/H4K5),"protein C9JRU6 DCUN1D1, run B6",0.4887
same,C6 log (H4K5me/H4K5),"protein C9JRU6 DCUN1D1, run C6",0.8825
same,B6 log2 (H4K5me/H4K5),"protein C11orf84 (Q9BUA3), run B6",-0.01751
same,C6 log (H4K5me/H4K5),"protein C11orf84 (Q9BUA3), run C6",0.3521
same,B6 log2 (H4K5me/H4K5),"protein C22orf28 (Q9Y3I0), run B6",0.09589
same,C6 log (H4K5me/H4K5),"protein C22orf28 (Q9Y3I0), run C6",0.5939
same,B6 log2 (H4K5me/H4K5),"protein CALM1 (P62158), run B6",-0.008735
same,C6 log (H4K5me/H4K5),"protein CALM1 (P62158), run C6",-0.02009
same,B6 log2 (H4K5me/H4K5),"protein CALR (P27797), SILAC run B6",-0.2715
same,C6 log (H4K5me/H4K5),"protein CALR (P27797), SILAC run C6",-0.3204
same,B6 log2 (H4K5me/H4K5),"protein CANX (P27824), run B6",0.05675
same,C6 log (H4K5me/H4K5),"protein CANX (P27824), run C6",-0.4177
same,B6 log2 (H4K5me/H4K5),"protein CAPRIN1 (E9PLA9), run B6",0.01797
same,C6 log (H4K5me/H4K5),"protein CAPRIN1 (E9PLA9), run C6",0.234
same,B6 log2 (H4K5me/H4K5),"protein CBX2 (Q14781), run B6",0.1082
same,C6 log (H4K5me/H4K5),"protein CBX2 (Q14781), run C6",0.02951
same,B6 log2 (H4K5me/H4K5),"protein CCDC50 (Q8IVM0), SILAC run B6",-0.2246
same,C6 log (H4K5me/H4K5),"protein CCDC50 (Q8IVM0), SILAC run C6",0.1104
same,B6 log2 (H4K5me/H4K5),"protein CCT2 (P78371), run B6",-0.0172
same,C6 log (H4K5me/H4K5),"protein CCT2 (P78371), run C6",0.09255
same,B6 log2 (H4K5me/H4K5),"protein CCT3 (B4DUR8), SILAC run B6",-0.2158
same,C6 log (H4K5me/H4K5),"protein CCT3 (B4DUR8), SILAC run C6",-0.1815
same,B6 log2 (H4K5me/H4K5),"protein CCT4 (P50991), SILAC run B6",-0.252
same,C6 log (H4K5me/H4K5),"protein CCT4 (P50991), SILAC run C6",-0.186
same,B6 log2 (H4K5me/H4K5),"protein CCT5 (B7ZAR1), run B6",0.05297
same,C6 log (H4K5me/H4K5),"protein CCT5 (B7ZAR1), run C6",0.1458
same,B6 log2 (H4K5me/H4K5),"protein CCT6A (P40227), SILAC run B6",-0.6445
same,C6 log (H4K5me/H4K5),"protein CCT6A (P40227), SILAC run C6",0.1508
same,B6 log2 (H4K5me/H4K5),"protein CCT8 (P50990), run B6",0.05735
same,C6 log (H4K5me/H4K5),"protein CCT8 (P50990), run C6",0.02454
same,B6 log2 (H4K5me/H4K5),"protein CD3EAP (O15446), SILAC run B6",-0.5108
same,C6 log (H4K5me/H4K5),"protein CD3EAP (O15446), SILAC run C6",-0.5438
same,B6 log2 (H4K5me/H4K5),"protein CDC5L (Q99459), run B6",0.09795
same,C6 log (H4K5me/H4K5),"protein CDC5L (Q99459), run C6",0.151
same,B6 log2 (H4K5me/H4K5),"protein CDC27 (G5EA36), run B6",0.01235
same,C6 log (H4K5me/H4K5),"protein CDC27 (G5EA36), run C6",-0.1591
same,B6 log2 (H4K5me/H4K5),"protein CDK1 (A0A024QZP7), SILAC run B6",-0.9796
same,C6 log (H4K5me/H4K5),"protein CDK1 (A0A024QZP7), SILAC run C6",-0.9055
same,B6 log2 (H4K5me/H4K5),"protein CEBPZ (Q03701), SILAC run B6",-0.2332
same,C6 log (H4K5me/H4K5),"protein CEBPZ (Q03701), SILAC run C6",-0.1202
same,B6 log2 (H4K5me/H4K5),"protein CFL1 (G3V1A4), run B6",0.0742
same,C6 log (H4K5me/H4K5),"protein CFL1 (G3V1A4), run C6",-0.03597
same,B6 log2 (H4K5me/H4K5),"protein CHAF1A (Q13111), run B6",0.002339
same,C6 log (H4K5me/H4K5),"protein CHAF1A (Q13111), run C6",0.0778
same,B6 log2 (H4K5me/H4K5),"protein CHD1L (Q86WJ1), SILAC run B6",-0.2887
same,C6 log (H4K5me/H4K5),"protein CHD1L (Q86WJ1), SILAC run C6",-0.02242
same,B6 log2 (H4K5me/H4K5),"protein CHD4 (A0A2R8Y425), run B6",-0.01294
